PubChem BioAssay AID1347076 (National Center for Advancing Translational Sciences (NCATS), 2019)
Where “and” joins values, the source holds several entries; their conditions need not be identical. Equal values may be shown once. The campaign covered roughly 400,000 compounds. About 13,000 (3.2%) were called active. The shares of active, inactive and inconclusive entries below differ from those in the screen. The call rests on the fitted dose curve; in most records, active means well fitted cell-killing curve with a large enough effect; inconclusive means small, poorly fitted or top-dose-only effect, or effect the other way; inactive means flat fitted curve, though single readings scatter. Potencies beside an inconclusive call are fits to weak or partial responses and may not hold up.

experiment: qHTS assay for MDR1-selective chemotherapeutics: Primary screen using the drug-selected MDR subline cells KB-V1; conditions: KB-V1 MDR cells viability, CellTiter-Glo, 72 h; series mostly up to 46.1 µM; further: nearly all actives have a fitted effect of over 60% in size
Method in brief: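 Drug-selected KB-V1 cells, grown in DMEM lacking phenol red with 10% FBS, receive compound titrations; after three days at 37 degrees C, surviving cell ATP is quantified by CellTiter-Glo luminescence and responses normalized and curve-fitted.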
Potency means the concentration at half of the fitted maximal effect.

Q: With `CC(NC(=O)c1ccc(Cl)c(S(=O)(=O)N2CCCCCC2)c1)c1cccnc1` (stereo not given) as the compound, how does the Potency read?
A: inconclusive: 29.1 µM [cytotoxic, single point]

Q: Which Potency does the source give for `COc1ccc(CN2CCNC(=O)C2CC(=O)NCc2cn3ccc(C)cc3n2)c(OC)c1` (stereo not given) here?
A: inactive

Q: Which Potency does the source give for `Cc1cc(Nc2ccccc2)n(-c2nc3ccccc3[nH]2)n1` here?
A: inconclusive: 20.6 µM [cytotoxic, single point]

Q: Which Potency does the source give for `CS(=O)(=O)NCCOc1ccc(S(=O)(=O)N2CCCc3ccccc32)cc1` here?
A: inconclusive: 18.4 µM [cytotoxic, single point]

Q: For `Cc1c[n+]([O-])ccc1Oc1ccc([N+](=O)[O-])cc1`, which Potency is on record?
A: inactive

Q: With `COc1cc(SC)ccc1C(=O)NCc1ccccc1` as the compound, how does the Potency read?
A: active: 20.6 µM

Q: For `Cc1ccsc1/C=N/NC(=O)C1CC(=O)N(c2ccccc2)C1` (stereo not given), which Potency is on record?
A: inconclusive: 23.1 µM [cytotoxic, single point]

Q: Which Potency does the source give for `Cc1c(C(=O)NCCc2ccccc2)cccc1-n1cnc2cccnc21` here?
A: inactive

Q: For `CC1(C)CNC(=S)N1Cc1ccccc1`, which Potency is on record?
A: inactive

Q: For `COc1ccc(S(=O)(=O)NCCc2sc(-c3cccnc3)nc2C)cc1`, which Potency is on record?
A: inconclusive: 20.6 µM [cytotoxic, single point]

Q: Which Potency does the source give for `CN(C)C(CNC(=O)c1cc(S(=O)(=O)N(C)c2ccccc2)ccc1Cl)c1cccs1` (stereo not given) here?
A: inconclusive: 2.91 µM [cytotoxic, partial curve]

Q: For `Cn1c(=O)c2c(-c3ccccc3)n3c(c2n(C)c1=O)C(c1ccc([N+](=O)[O-])cc1)Nc1ccccc1-3` (stereo not given), which Potency is on record?
A: inconclusive: 25.9 µM [cytotoxic, partial curve, poor fit]

Q: For `O=C1C=C(OCCF)CC(c2ccccc2C(F)(F)F)O1` (stereo not given), which Potency is on record?
A: inactive

Q: For `Cc1cc(NC(=O)CCCC(=O)N(c2ccccc2)C(C(=O)NC2CCCCC2)c2cccs2)no1` (stereo not given), which Potency is on record?
A: active: 2.06 µM

Q: Which Potency does the source give for `CCCn1c(C)cc(C(=O)COc2ccc(C)nc2[N+](=O)[O-])c1C` here?
A: active: 16.4 µM

Q: Which Potency does the source give for `CC(=O)c1cccc(NC(=O)/C=C/c2ccc(S(=O)(=O)N3CCOCC3)cc2)c1` here?
A: inactive

Q: Which Potency does the source give for `Cc1cccc(C)c1OCc1nnc2c3cnn(C)c3ncn12` here?
A: inconclusive: 13 µM [cytotoxic, partial curve]

Q: Which Potency does the source give for `CCOc1cc(/C=N/NC(=O)c2cccnc2)ccc1OCc1ccc(C(=O)OC)o1` here?
A: inactive

Q: With `COc1ccc(OC)c(N/C=C/C(=C(C#N)C#N)N(C)C)c1` as the compound, how does the Potency read?
A: inactive

Q: With `Cc1cc(C)c2c(=O)[nH]c(SCC(=O)Nc3cccc(S(=O)(=O)N(C)C)c3)nc2n1` as the compound, how does the Potency read?
A: inconclusive: 29.1 µM [rising, single point]

Q: Which Potency does the source give for `Cc1nc2c(=O)n(C)c(=O)n(C)c2nc1Cl` here?
A: inconclusive: 11.6 µM [cytotoxic, partial curve, poor fit]

Q: For `CCCCC(=O)Nc1ccc(NC(=S)NC(=O)CCCCl)cc1OC`, which Potency is on record?
A: inconclusive: 11.6 µM [cytotoxic, partial curve, poor fit]

Q: With `O=C(C1CC=CCC1)N1CCC(CO)(Cc2ccc(Cl)cc2)CC1` (stereo not given) as the compound, how does the Potency read?
A: active: 11.6 µM

Q: With `COC(C(=O)Nc1ccc(S(=O)(=O)Nc2ccc(F)cc2)cc1)c1ccccc1` (stereo not given) as the compound, how does the Potency read?
A: inactive

Q: With `Cc1ccc2c(c1)C1C[N+](C)(CC(=O)c3ccccc3)CCC1N2C(=O)c1ccccc1Cl` (stereo not given) as the compound, how does the Potency read?
A: inconclusive: 29.1 µM [rising, single point]

Q: Which Potency does the source give for `C=CCn1c(SCC(=O)Nc2ccc3c(c2)OCCO3)nc2cc(C(=O)O)ccc2c1=O` here?
A: inconclusive: 29.1 µM [rising, single point]

Q: For `CCOC(=O)N1CCN(S(=O)(=O)c2ccc(C)cc2)C1`, which Potency is on record?
A: inactive

Q: For `COc1ccc(C(C)=O)cc1CSc1nnc(Nc2ccccc2)s1`, which Potency is on record?
A: active: 8.2 µM

Q: Which Potency does the source give for `CCOC(=O)c1c(C)[nH]c(C(=O)OCc2csc(CC(=O)Nc3ccccc3C)n2)c1C` here?
A: inconclusive: 3.26 µM [cytotoxic, full curve]

Q: With `CCOC(=O)C1CCN(C(=O)C2CCN(S(=O)(=O)c3c(C)noc3/C=C/c3ccc(C)cc3)CC2)CC1` as the compound, how does the Potency read?
A: inactive

Q: With `CC(=O)NCC1CCCN(Cc2cn(-c3ccccc3)nc2-c2ccc3c(c2)OCO3)C1` (stereo not given) as the compound, how does the Potency read?
A: inconclusive: 18.4 µM [cytotoxic, single point]

Q: With `COc1cc(OC)cc(C(=O)Nc2ccc3c(c2)CCCN3C(=O)c2cccs2)c1` as the compound, how does the Potency read?
A: inconclusive: 517 nM [cytotoxic, partial curve, poor fit] and inconclusive: 32.6 µM [cytotoxic, partial curve, poor fit]

Q: Which Potency does the source give for `CCOc1ccc(C2c3cc(OC)c(OC)cc3CC(=O)N2c2ccc(OC)cc2)cc1` (stereo not given) here?
A: inconclusive: 6.51 µM [cytotoxic, partial curve, poor fit]

Q: With `O=[N+]([O-])c1ccc(S(=O)(=O)N2CCN(C3CCN(Cc4ccccc4)CC3)CC2)cc1` as the compound, how does the Potency read?
A: inconclusive: 9.2 µM [cytotoxic, partial curve]

Q: For `Cn1c(SCC(=O)NC2CCCCC2)nc2c(c1=O)SCC2`, which Potency is on record?
A: inconclusive: 32.6 µM [cytotoxic, single point]

Q: With `COc1ccc(OC)c(NC(=O)CSc2nnnn2-c2ccc3c(c2)OCO3)c1` as the compound, how does the Potency read?
A: inconclusive: 29.1 µM [cytotoxic, single point]

Q: For `CC(C)(C)CC(C)(C)NCC(O)COc1c(F)cc(Br)cc1F` (stereo not given), which Potency is on record?
A: active: 20.6 µM

Q: For `O=C(Nc1nc(-c2cccs2)c(-c2cccs2)s1)C1(c2ccccc2)CC1`, which Potency is on record?
A: active: 18.4 µM

Q: With `COc1ccc(-c2c(-c3cc(OC)cc(OC)c3)n(C)c3ccc(-c4ccc(SC)cc4)cc23)cc1` as the compound, how does the Potency read?
A: inconclusive: 32.6 µM [rising, single point]

Q: Which Potency does the source give for `Cc1ccc(NC(=O)CSCC(=O)N(C)CC(=O)Nc2ccccc2C(F)(F)F)cc1` here?
A: inactive

Q: With `O=C1CCC(C(=O)N2CCCC(C(=O)c3ccc4c5c(cccc35)CC4)C2)=NN1` (stereo not given) as the compound, how does the Potency read?
A: inactive

Q: With `CN(CC(=O)OCC(=O)NC1CCCC1)S(=O)(=O)c1ccc(Cl)cc1` as the compound, how does the Potency read?
A: inactive

Q: With `COc1ccc(Cl)cc1NC(=O)c1nnn(CC(=O)Nc2ccc(C)c(C)c2)c1N` as the compound, how does the Potency read?
A: inconclusive: 18.4 µM [rising, single point]

Q: With `CCOC(=O)/C(=C/c1ccc(OC(F)F)cc1)C1=Nn2c(nnc2-c2ccc(Cl)cc2)SC1` as the compound, how does the Potency read?
A: inconclusive: 29.1 µM [cytotoxic, single point]

Q: For `CCOC(=O)COc1ccc2c(c1)C(=O)CC(C)(C)O2`, which Potency is on record?
A: inconclusive: 0.326 µM [rising, partial curve]

Q: With `CC12C=CC(=O)C=C1CCC1C2CCC2(C)C(C(=O)CO)CCC12` (stereo not given) as the compound, how does the Potency read?
A: inconclusive: 18.4 µM [cytotoxic, single point]

Q: For `CC(=O)Nc1ccccc1OCC(=O)NC(C)c1ccc(F)cc1` (stereo not given), which Potency is on record?
A: inconclusive: 20.6 µM [cytotoxic, partial curve]

Q: With `CC/C(=C(\c1ccccc1)c1ccc(OCCN(C)C)cc1)c1ccccc1` as the compound, how does the Potency read?
A: inconclusive: 29.1 µM [cytotoxic, single point] and inconclusive: 23.1 µM [cytotoxic, single point]

Q: With `Cc1ccc2c(c1)c1c3n2CCN=C3CCC1` as the compound, how does the Potency read?
A: active: 14.6 µM

Q: Which Potency does the source give for `O=c1c2ccccc2cnn1Cc1nnc(-c2cccs2)o1` here?
A: inconclusive: 20.6 µM [cytotoxic, partial curve, poor fit]

Q: For `CCc1cccc(CC)c1N1C(=O)C2=C(SCCCS2)C1=O`, which Potency is on record?
A: inconclusive: 29.1 µM [cytotoxic, single point]

Q: With `O=S(=O)(CC(CN1CCCCC1)N1CCCCC1)c1ccc2ccccc2c1` (stereo not given) as the compound, how does the Potency read?
A: inconclusive: 4.61 µM [cytotoxic, full curve]

Q: With `CC(C)(C)c1ccc(S(=O)(=O)N2CCC(NC(=O)c3ccco3)CC2)cc1` as the compound, how does the Potency read?
A: inactive

Q: With `CS(=O)(=O)N(CC(N)=O)c1ccc2c(c1)OCO2` as the compound, how does the Potency read?
A: inactive

Q: With `Cc1cc(S(=O)(=O)Nc2cc3c(cc2N2CCOCC2)n(C)c(=O)c(=O)n3C)ccc1F` as the compound, how does the Potency read?
A: inactive

Q: With `O=C(COc1ccc2ccc(=O)oc2c1)Nc1cccnc1` as the compound, how does the Potency read?
A: inconclusive: 9.2 µM [rising, partial curve]

Q: With `COc1ccccc1N(C)S(=O)(=O)c1ccc(C(=O)Nc2ccc(C(N)=O)cc2)cc1` as the compound, how does the Potency read?
A: inconclusive: 1.46 µM [rising, full curve, poor fit]

Q: Which Potency does the source give for `CN(C)C(CNc1ncnc2sc3c(c12)CCCCC3)c1ccco1` (stereo not given) here?
A: inconclusive: 4.61 µM [cytotoxic, full curve]

Q: With `O=C(NCc1ccco1)c1ccc2sc([C@H]3C[C@H](O)[C@@H](CO)O3)nc2c1` as the compound, how does the Potency read?
A: inactive

Q: Which Potency does the source give for `OC(COCC1CC=CCC1)Cn1cnc2ccccc21` (stereo not given) here?
A: inactive

Q: With `COc1cccc2[nH]c3c(N4CCC5(CC4)OCCO5)ncnc3c12` as the compound, how does the Potency read?
A: inconclusive: 20.6 µM [cytotoxic, single point]

Q: Which Potency does the source give for `CCCNC(=O)c1ccc(Cn2c(SCC(=O)NC(C)C)nc3ccccc3c2=O)cc1` here?
A: inconclusive: 29.1 µM [rising, partial curve, poor fit]

Q: For `COc1ccc(S(=O)(=O)NCCC(=O)OCC(=O)NC2CC2)cc1`, which Potency is on record?
A: inactive

Q: With `Fc1ccccc1-c1csc(=Nc2cccnc2)n1CC1CCCO1` (stereo not given) as the compound, how does the Potency read?
A: inconclusive: 29.1 µM [cytotoxic, single point]

Q: With `COc1ccc(-c2[nH]c(-c3ccc(C)cc3)nc2SCC(=O)Nc2nccs2)cc1` as the compound, how does the Potency read?
A: active: 23.1 µM

Q: With `O=C(COc1ccc(Br)cc1)N1CCCCCC1` as the compound, how does the Potency read?
A: inactive

Q: With `O=S(=O)(c1ccc2ccccc2c1)N1CCC(c2nc(-c3ccncc3)no2)CC1` as the compound, how does the Potency read?
A: inconclusive: 4.61 µM [cytotoxic, full curve]

Q: Which Potency does the source give for `COc1ccc(OCC(=O)Nc2ccc(OC)c(S(=O)(=O)N3CCCCC3)c2)cc1` here?
A: inactive

Q: For `CCc1cccc(C)c1NC(=O)COn1nnc2ccc(C(F)(F)F)cc21`, which Potency is on record?
A: inconclusive: 16.4 µM [cytotoxic, single point]

Q: For `O=C(CCOc1ccccc1F)N1CCN(c2ccccc2O)CC1`, which Potency is on record?
A: inactive
